# Data: PubChem BioAssay AID651640 (Broad Institute, 2012)
# The campaign covered roughly 350,000 compounds. About 6,000 (1.7%) were called active. Inconclusive means that the source gave no clear call. Such entries were picked first, then a sample of the others. No stated cut-off is given here; in the data, active means CPE inhibition above about 20% (passing the limit was not always enough); inconclusive means no clear call, values can overlap the other calls; tested in BHK-21 cells. Some structures have more than one record in an assay (separate samples or runs), and their calls can disagree.
# Assay: protection of cells from dengue 2 killing – plate reader, single concentration, primary screen (AID 651640);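 further: 0% = median of neutral control wells and 100% = median of positive control wells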
# Settings: DENV2-infected cells, cytopathic effect rescue, at 9.99 µM, stronger effect = higher value
row,Compound,CPE inhibition
1,O=c1[nH]c(=O)n(C2OC(CO)C(O)C(O)C2O)cc1F (centres undefined),active: 68.1%
2,COc1ccccc1-c1ccc2c(c1)O[C@H](CN(C)C(=O)Nc1ccccc1)[C@H](C)CN([C@@H](C)CO)S2(=O)=O,inconclusive: 5.69%
3,CCc1cccc(-n2c(C)cc(O)cc2=O)c1,active: 61.2%
4,O=C(NC[C@H]1N[C@H](CO)[C@@H]1c1ccc(C2=CCCC2)cc1)C1CCCC1,inactive: 16.5%
5,CC(C)NC(=O)Nc1ccc2c(c1)C(=O)N([C@H](C)CO)C[C@H](C)[C@H](CN(C)C(=O)Nc1ccccc1)OCCCC[C@@H](C)O2,inconclusive: 61.2%
6,CC(C)CC#Cc1ccc2c(c1)O[C@@H](CN(C)C(=O)c1ccccn1)[C@@H](C)CN([C@@H](C)CO)S2(=O)=O,inactive: -6.38%
7,Cc1ccc(S(=O)(=O)N(C)C[C@H]2Oc3c(NS(=O)(=O)c4ccc(Cl)cc4)cccc3C(=O)N([C@@H](C)CO)C[C@H]2C)cc1,active: 74.4%
8,COc1ccccc1CCNC(=O)c1cc(COc2cccc(C(F)(F)F)c2)on1,inactive: -0.705%
9,COc1ccc(CCNC(=O)COC(=O)/C=C/c2cccc(F)c2)cc1,inconclusive: 35.8%
10,COc1cc(/C=N/NC(=S)Nc2cccc(S(=O)(=O)N(C)C)c2)cc(OC)c1O,inconclusive: 36.5%
11,C[C@H]1CN([C@@H](C)CO)C(=O)CCCn2cc(nn2)CO[C@@H]1CN(C)S(=O)(=O)c1ccc(Oc2ccccc2)cc1,active: 34.6%
12,CC(NC(=O)COC(=O)c1ccccc1O)c1ccccc1 (centres undefined),inactive: -9.43%
13,CCCC[C@@H]1CNC(=O)C(=O)N1CCCCC1CCCCC1,active: 42.4%
14,C[C@H]1CN([C@@H](C)CO)C(=O)c2cc(NC(=O)CCC(F)(F)F)ccc2O[C@H]1CN(C)C,inconclusive: 33.9%
15,C/C=C/c1cnc2c(c1)C(=O)N([C@@H](C)CO)C[C@@H](C)[C@H](CN(C)C(=O)CN1CCOCC1)O2,inactive: 1.81%
16,COc1ccc(S(=O)(=O)N2CCCCN3[C@H](CO)[C@H](c4ccc(C5=CCCC5)cc4)[C@@H]3C2)cc1,active: 141%
17,CC(C)CC#Cc1cnc2c(c1)C(=O)N([C@@H](C)CO)C[C@@H](C)[C@@H](CN(C)C(=O)c1cccnc1)O2,inconclusive: 33.8%
18,CN(C)c1ccc(S(=O)(=O)NCC(=O)N2CCN(c3ccccc3)CC2)cc1[N+](=O)[O-],inconclusive: 41.7%
19,C[C@@H]1CN([C@H](C)CO)C(=O)Cc2cc(NS(=O)(=O)c3cn(C)cn3)ccc2O[C@@H]1CN(C)Cc1ccncc1,inconclusive: 20.2%
20,CN(CC(=O)N1CCCCCC1)S(=O)(=O)c1cccc2cccnc12,inconclusive: 44.1%
21,CCCC#Cc1ccc2c(c1)O[C@H](CN(C)C(=O)c1ccccn1)[C@H](C)CN([C@H](C)CO)S2(=O)=O,inactive: -4.49%
22,CCS(=O)(=O)N1CC(=O)N2[C@H](CO)[C@@H](c3ccc(C#CC4CC4)cc3)[C@@H]2C1,inactive: -7.42%
23,COc1ccc2c3c([nH]c2c1)[C@H](CO)N(C(=O)c1cnccn1)CC31CCN(S(C)(=O)=O)CC1,active: 68.2%

row,Compound,CPE inhibition
1,COCC(=O)N(C)C[C@H]1Oc2ncc(C#C[C@H](C)O)cc2C(=O)N([C@@H](C)CO)C[C@@H]1C,inactive: -0.224%
2,CC(=O)/C(=C/c1ccccc1)C(=O)Nc1ccccc1C,inactive: -11.7%
3,O=C(/C=C/c1cccc([N+](=O)[O-])c1)OCC(=O)N1CCN(C(=O)c2ccco2)CC1,inconclusive: 39.7%
4,COc1ccc2c3c([nH]c2c1)[C@H](CO)N(C(=O)Nc1ccc(F)cc1)CC31CCN(S(=O)(=O)c2ccccc2)CC1,inconclusive: 37.2%
5,C[C@H](CO)N1C[C@H](C)[C@@H](CN(C)C(=O)Nc2ccc(F)cc2)Oc2ccc(NC(=O)Nc3ccc4c(c3)OCO4)cc2C1=O,inconclusive: 57.2%
6,CC(C)NC(=O)Nc1ccc2c(c1)C(=O)N([C@@H](C)CO)C[C@@H](C)[C@H](CN(C)Cc1ccccc1)OCCCC[C@H](C)O2,inconclusive: 33.4%
7,C[C@@H]1CN([C@@H](C)CO)C(=O)c2cc(NC(=O)NC3CCCCC3)ccc2O[C@H]1CN(C)C,inactive: -0.904%
8,COCCNC(=O)CCCn1c(=O)c2cc(OC)c(OC)cc2n(CC(=O)Nc2ccccc2OC)c1=O,inactive: 7.6%
9,CN(C)C(=O)C[C@H]1C[C@H]2c3cc(NS(C)(=O)=O)ccc3O[C@H]2[C@H](CO)O1,inactive: -0.391%
10,CC(C)CCNC(=O)C1CC(c2ccccc2[N+](=O)[O-])=NO1 (centres undefined),inconclusive: 55.7%
11,O=C(COC(=O)/C=C/c1ccccc1)NCCNC(=O)COC(=O)/C=C/c1ccccc1,inconclusive: 21.5%
12,COC(=O)C1=C(C)N(CCCC(=O)O)C(=O)NC1c1cc2c(cc1[N+](=O)[O-])OCO2 (centres undefined),inconclusive: 31%
13,Cc1ccc(C(=O)CSc2cc(C)[nH]c(=O)n2)cc1,inconclusive: 21.1%
14,CC1(C)Cc2cccc(OCC(=O)Nc3ccc(S(N)(=O)=O)cc3)c2O1,inconclusive: 23.6%
15,COc1cccc(NC(=O)CN(C)C(=O)c2ccc(N3CCOCC3)c([N+](=O)[O-])c2)c1,inconclusive: 22.3%
16,CCCNC(=O)N[C@H]1CC[C@@H](CCn2cc(-c3cccc(F)c3)nn2)O[C@H]1CO,active: 56.2%
17,COc1ccc(NC(=O)c2ccccc2NC(=O)C2CC=CCC2C(=O)O)cc1 (centres undefined),inconclusive: 37.3%
18,COc1cccc(S(=O)(=O)N(C)C[C@H]2Oc3cc(C#CCC(C)C)ccc3S(=O)(=O)N([C@@H](C)CO)C[C@H]2C)c1,active: 44%
19,O=C(COC(=O)c1ccccc1)Nc1ccc(Cl)cn1,inconclusive: 29.4%
20,COc1cc(F)ccc1-c1csc(C(O)c2ccc(F)c(F)c2)n1 (centres undefined),inconclusive: 27.8%
21,CCOC(=O)N1CCC(N2CCN(S(=O)(=O)c3ccc(NC(C)=O)cc3)CC2)CC1,inconclusive: 20.8%
22,COc1ccc(S(=O)(=O)N(C)C[C@H]2OCCCC[C@@H](C)Oc3ccc(NC(=O)c4ccncc4)cc3C(=O)N([C@@H](C)CO)C[C@H]2C)cc1,inconclusive: 43.3%
23,Cc1cc(C)nc(/N=C(\N)Nc2cccc(OCc3ccccc3)c2)n1,inactive: -11.3%

row,Compound,CPE inhibition
1,OC[C@@H]1[C@H](c2ccc(-c3cccc(F)c3)cc2)[C@@H]2CN(CCC(F)(F)F)CCCCN12,active: 41.4%
2,COCC(=O)Nc1ccc2c(c1)[C@H]1C[C@H](CC(=O)NCc3ccc4c(c3)OCO4)O[C@@H](CO)[C@H]1O2,inactive: 9.14%
3,CCOc1cc(C(=O)Nc2ccncc2)cc(OCC)c1OCC,inconclusive: 25.1%
4,C[C@H](CO)N1C[C@H](C)[C@@H](CN(C)Cc2ccc(C(=O)O)cc2)Oc2ccc(NC(=O)Nc3ccc(C(F)(F)F)cc3)cc2C1=O,inconclusive: 59.3%
5,COc1ccccc1CNC(=O)c1cc(-c2ccccc2)n(Cc2cc(C)no2)n1,inconclusive: 43%
6,C[C@@H]1CN([C@H](C)CO)C(=O)c2cc(NC(=O)C3CCCCC3)ccc2O[C@H]1CN(C)C(=O)Nc1ccc(F)cc1,active: 55.4%
7,CCS(=O)(=O)N1CC2(C1)[C@@H](c1ccccc1)[C@@H](CO)N2C(=O)C1CCC1,inconclusive: 61.7%
8,COc1cc(C(=O)NCc2nnc(SCC(=O)N3CCCc4ccccc43)o2)cc(OC)c1OC,inconclusive: 24.5%
9,Cc1ccccc1-c1ccc2c(c1)O[C@H](CN(C)C(=O)Nc1ccc(C(F)(F)F)cc1)[C@@H](C)CN([C@H](C)CO)S2(=O)=O,inconclusive: 42.3%
10,C[C@@H]1CN([C@H](C)CO)C(=O)c2cccc(NC(=O)Nc3ccc(F)cc3)c2O[C@H]1CN(C)Cc1ccc(Oc2ccccc2)cc1,inactive: 10.1%
11,O=C(O)[C@H]1[C@H](CO)[C@H]2Cn3c(ccc(C4=CCCCC4)c3=O)[C@H]2N1C(=O)Cc1cccnc1,inconclusive: 26.5%
12,CCOc1cc(C(=O)N(C)CC(=O)Nc2cccc3ccccc23)ccc1OC,active: 41.6%
13,Cc1cccc(Oc2nccc(C(F)(F)F)c2C(=O)Nc2ccc(F)cc2F)c1,active: 32.4%
14,COc1ccccc1CNC(=O)CCCNC(=O)c1ccc(Cl)cc1,inconclusive: 30.5%
15,C[C@H](CO)N1C[C@H](C)[C@@H](CN(C)S(C)(=O)=O)Oc2ccc(NC(=O)c3ccncc3)cc2CC1=O,inconclusive: 21.5%
16,C[C@@H]1CN([C@H](C)CO)C(=O)Cc2cc(NC(=O)Cc3cn(C)c4ccccc34)ccc2O[C@@H]1CN(C)C(=O)Nc1cccc2ccccc12,active: 45%
17,Cc1ccc(NC(=O)C2CC(=O)N(Cc3ccco3)C2)cc1 (centres undefined),inconclusive: 21.3%
18,Cc1nn(-c2ccccc2)c(N)c1N=Nc1ccccc1,inactive: -5.13%
19,O=C(C[C@@H]1C=C[C@@H](NC(=O)CN2CCOCC2)[C@@H](CO)O1)NC1CCC1,inactive: -4.02%
20,O=C(N[C@@H](Cc1ccccc1)C(=O)OCc1ccccc1)c1nc[nH]c1C(=O)N[C@@H](Cc1ccccc1)C(=O)OCc1ccccc1,inconclusive: 72.6%
21,C[C@@H]1CN([C@H](C)CO)C(=O)c2cc(NS(=O)(=O)c3cccs3)ccc2O[C@@H](C)CCCCO[C@@H]1CN(C)C(=O)CCCN(C)C,inactive: 11.5%
22,N#C[C@H]1[C@H](c2ccc(-c3cccnc3)cc2)[C@@H](CO)N1C(=O)C1CCOCC1,inconclusive: 49.9%
23,CCC(=O)Nc1ccc2c(c1)C(=O)N(C)C[C@@H](OC)[C@@H](C)CN(C(=O)Cc1ccccn1)[C@H](C)CO2,inconclusive: 22.1%

# Copied from the list.
# O=C(O)[C@H]1[C@H](CO)[C@H]2Cn3c(ccc(C4=CCCCC4)c3=O)[C@H]2N1C(=O)Cc1cccnc1 – CPE inhibition: inconclusive: 26.5%
# O=C(N[C@@H](Cc1ccccc1)C(=O)OCc1ccccc1)c1nc[nH]c1C(=O)N[C@@H](Cc1ccccc1)C(=O)OCc1ccccc1 – CPE inhibition: inconclusive: 72.6%
